# Test results taken from PubChem BioAssay AID445 (National Center for Advancing Translational Sciences (NCATS), 2006).
# The list shows a part of the results. Shown are side measurements of this screen, not its main read-out; they come without a call. Compounds called inactive in the main read-out are mostly missing here. Words in brackets tell the shape of the fitted curve; partial curves, single points and poor fits give uncertain potencies.
# Assay: IkB Signaling
# Settings: ABC-DLBCL IkBa-CBG/CBR dual luciferase ratio (green luciferase fused to IkBa over red control in OCI-Ly3 lymphoma cells), 4 h
# Procedure, shortened: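 Curves were fitted separately to fusion (green), unfused (red) and ratio luminescence, then classed by r2, magnitude and activity. Cells: OCI-Ly3, 4 h compound plus doxycycline at 37C; 10 uM MG-132 defined full response.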
# [1] = measured here: control luc red channel unless noted
# [2] = measured here: IkB-luc green channel
# [3] = measured here: control luc red channel
smiles,measurement,setting,value
CCOc1ccc(C2c3c(oc4ccc(C)cc4c3=O)C(=O)N2CCCN(C)C)cc1 (stereo unspecified),AC50,[1],"3.16 µM [rising, single point]"
CCOC(=O)C1CCN(C(=O)c2ccc(NC(=O)c3nsc4ccccc34)cc2)CC1,AC50,[1],"0.501 µM [falling, full curve]"
COc1ccc(CNC(=O)C2CCCN(S(=O)(=O)c3ccc4c(c3)CCCN4C(C)=O)C2)cc1 (stereo unspecified),AC50,[1],"0.158 µM [falling, full curve, poor fit]"
COc1ccccc1N1CCN(S(=O)(=O)c2ccc(F)c(C(=O)Nc3ccc(C)c(F)c3)c2)CC1,AC50,[1],"3.16 µM [falling, partial curve, poor fit]"
COc1ccc(CCNC(=O)c2cc(Sc3cccc(Cl)c3)nc3ccccc23)cc1OC,AC50,[1],"31.6 µM [falling, single point]"
CCc1ccc2[nH]c(=O)c(CN(CCCN3CCOCC3)C(=O)Nc3ccc(F)cc3)cc2c1,AC50,[1],"12.6 µM [falling, partial curve]"
COc1ccc(CCNc2oc(-c3ccc(OC)c(OC)c3)nc2C#N)cc1,AC50,[1],"20 µM [falling, partial curve]"
O=C(Nc1cc(Cl)cc(Cl)c1)c1ccc(F)c(S(=O)(=O)N2CCCCCC2)c1,AC50,[1],"5.01 µM [falling, partial curve]"
Cc1ccc(C(C)C)c(OCCn2cc(C(=O)c3ccco3)c3ccccc32)c1,AC50,[1],"15.8 µM [falling, partial curve]"
COc1ccccc1N1CCN(C(=O)c2oc3ccccc3c2NC(=O)C(C)Oc2ccccc2)CC1 (stereo unspecified),AC50,[1],"20 µM [falling, partial curve]"
Cc1ccc(C(=O)CC2(O)C(=O)N(CCc3ccccc3)c3ccc(Br)cc32)o1 (stereo unspecified),AC50,[1],"25.1 µM [falling, partial curve]"
O=C(c1ccc2c(c1)OCCO2)N(Cc1cccnc1)c1nc2ccc(F)cc2s1,AC50,[1],"39.8 µM [falling, single point]"
CC(C)Sc1nc2c(cnn2-c2ccccc2)c(=O)[nH]1,AC50,[2],"31.6 µM [rising, partial curve]"
same,AC50,[3],"7.94 µM [falling, partial curve]"
CCN(CC)CCCNC(=O)c1cc(-c2ccc(OC)c(OC)c2)on1,AC50,[1],"25.1 µM [falling, single point]"
Cc1ccc(NC(=O)C2CCCN2S(=O)(=O)c2cccc3cccnc23)cc1 (stereo unspecified),AC50,[1],"0.316 µM [rising, full curve]"
CC1CN(C(=O)N2CCC(C(=O)NC3CCCCCC3)CC2)c2cc(Cl)ccc2O1 (stereo unspecified),AC50,[1],"20 µM [rising, partial curve]"
O=C(Cn1cc(SCc2cccc(Cl)c2)c2ccccc21)N1CCOCC1,AC50,[1],"7.94 µM [falling, partial curve]"
Cn1nc(CC(=O)Nc2ccc3c(c2)OCCO3)c2ccccc2c1=O,AC50,[1],"2.51 µM [falling, full curve, poor fit]"
Cc1cccc(NC(=O)CSc2nc3ccc(NC(=O)c4cccs4)cc3s2)c1,AC50,[1],"3.98 µM [falling, full curve]"
CC(C)c1ccc(OCc2cc(=O)n3c4c(sc3n2)CCCC4)cc1,AC50,[1],"0.631 µM [rising, partial curve]"
COc1ccc(OCC(=O)Nc2cc(-c3cccc(Cl)c3)nn2-c2ccccc2)cc1,AC50,[1],"2.51 µM [rising, full curve]"
CCc1ccc(Nc2cc(C)nc3nc(Cc4ccc(Cl)cc4)nn23)cc1,AC50,[1],"25.1 µM [falling, single point]"
CCOC(=O)c1ccc(CSc2nnc3cc(C)c4ccccc4n23)cc1,AC50,[1],"39.8 µM [falling, single point]"
COc1ccccc1NC(=O)CN(c1ccc(C(C)C)cc1)S(=O)(=O)c1c(C)noc1C,AC50,[1],"7.94 µM [falling, full curve]"
CCCn1c(Nc2nc3ccccc3n2C)nc2ccccc21,AC50,[2],"10 µM [rising, single point]"
same,AC50,[3],"12.6 µM [falling, partial curve]"
N#Cc1ccc(C(=O)N2CCN(c3nc4ccc(F)cc4s3)CC2)cc1,AC50,[1],"39.8 µM [falling, single point]"
COc1ccc(-c2oc3ncn4nc(-c5ccc(Cl)cc5)nc4c3c2-c2ccc(OC)cc2)cc1,AC50,[1],"0.0398 µM [rising, full curve]"
COc1cc2c(cc1OC)C(c1ccc(Cl)cc1)N(c1ccc(C)c(F)c1)C(=O)C2 (stereo unspecified),AC50,[1],"31.6 µM [falling, partial curve]"
CN1C(C(=O)Nc2ccc(OC(F)(F)F)cc2)=CC(c2ccc3c(c2)OCO3)=NS1(=O)=O,AC50,[1],"25.1 µM [falling, single point]"
CCN(CC)c1ccc(NS(=O)(=O)c2ccc3c(c2)CCCN3C(C)=O)c(C)c1,AC50,[1],"39.8 µM [falling, single point]"
COc1ccc(C2c3c(n(C)c4ccccc34)C(=O)N2CC(=O)Nc2ccc(Cl)cc2)cc1 (stereo unspecified),AC50,[1],"10 µM [falling, partial curve]"
CCOC(=O)c1c(C)oc2ncnc(NCCc3ccccc3)c12,AC50,[1],"39.8 µM [falling, single point]"
CCCN1CCN(CCNC(=O)Nc2cc(OC)cc(OC)c2)CC1,AC50,[1],"31.6 µM [falling, partial curve, poor fit]"
Cc1ccc(S(=O)(=O)CCSc2nc(C)cc(C)c2C#N)cc1,AC50,[1],"15.8 µM [falling, partial curve]"
Cc1ccc(C)c(NC(=O)CCCn2nc(C)c3sc4ccccc4c3c2=O)c1,AC50,[1],"3.98 µM [rising, partial curve]"
COc1cc(CN(C(=O)COc2ccc(C)c(C)c2)c2ccccn2)cc(OC)c1OC,AC50,[1],"31.6 µM [falling, single point]"
CCOc1ccccc1NC(=O)CC1Nc2ccccc2NC1=O (stereo unspecified),AC50,[1],"25.1 µM [falling, partial curve]"
O=C(CSc1oc(-c2ccco2)nc1S(=O)(=O)c1ccc(Cl)cc1)c1ccc(Cl)cc1,AC50,[1],"1 µM [falling, full curve]"
O=C(CSC1=NCCS1)Nc1ccccc1F,AC50,[1],"12.6 nM [rising, partial curve, poor fit] [measured here: IkB-luc green channel]"

# Part of the list above, with bars between the fields:
smiles | measurement | setting | value
O=C(Cn1cc(SCc2cccc(Cl)c2)c2ccccc21)N1CCOCC1 | AC50 | [1] | 7.94 µM [falling, partial curve]
Cn1nc(CC(=O)Nc2ccc3c(c2)OCCO3)c2ccccc2c1=O | AC50 | [1] | 2.51 µM [falling, full curve, poor fit]
